Data on 1 molecule can be found in article PMC7345447.

No constants are given. Whether binding was seen depends on the method and setting. In cells and extracts the contact can be indirect. Where a sequence is shown, tags or fusion partners need not be part of it.

This assay addresses T1, Dit1-HA (S. cerevisiae) (UniProt P21623).
T1 sequence: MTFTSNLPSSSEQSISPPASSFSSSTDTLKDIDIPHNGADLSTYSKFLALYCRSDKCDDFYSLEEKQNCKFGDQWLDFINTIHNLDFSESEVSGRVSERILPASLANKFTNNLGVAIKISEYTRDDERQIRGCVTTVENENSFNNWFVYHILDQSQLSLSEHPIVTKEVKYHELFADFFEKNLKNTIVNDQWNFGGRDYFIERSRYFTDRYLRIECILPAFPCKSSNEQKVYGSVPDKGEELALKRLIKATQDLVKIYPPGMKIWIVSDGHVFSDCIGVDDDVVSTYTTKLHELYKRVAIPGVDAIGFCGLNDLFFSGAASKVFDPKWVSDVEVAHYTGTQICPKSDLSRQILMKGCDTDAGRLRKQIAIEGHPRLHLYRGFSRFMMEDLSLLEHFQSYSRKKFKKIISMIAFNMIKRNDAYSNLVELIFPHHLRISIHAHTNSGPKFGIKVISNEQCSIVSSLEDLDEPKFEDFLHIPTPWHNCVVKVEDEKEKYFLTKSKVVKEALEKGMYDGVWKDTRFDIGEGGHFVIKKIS
Description: co-IP; mouse anti-HA antibodies (1:200) with 200 uL of yeast lysate (PBS, proteinase inhibitor cocktail, 1% NP-40) 1 h at 4 °C, then protein A + G beads 2 h at 4 °C; beads washed five times with PBS; Western blotting.

B1: Dit2-FLAG (enzyme, UniProt P21595 1-489)
chain: MELLKLLCLILFLTLSYVAFAIIVPPLNFPKNIPTIPFYVVFLPVIFPIDQTELYDLYIRESMEKYGAVKFFFGSRWNILVSRSEYLAQIFKDEDTFAKSGNQKKIPYSALAAYTGDNVISAYGAVWRNYRNAVTNGLQHFDDAPIFKNAKILCTLIKNRLLEGQTSIPMGPLSQRMALDNISQVALGFDFGALTHEKNAFHEHLIRIKKQIFHPFFLTFPFLDVLPIPSRKKAFKDVVSFRELLVKRVQDELVNNYKFEQTTFAASDLIRAHNNEIIDYKQLTDNIVIILVAGHENPQLLFNSSLYLLAKYSNEWQEKLRKEVNGITDPKGLADLPLLNAFLFEVVRMYPPLSTIINRCTTKTCKLGAEIVIPKGVYVGYNNFGTSHDPKTWGTTADDFKPERWGSDIETIRKNWRMAKNRCAVTGFHGGRRACLGEKLALTEMRISLAEMLKQFRWSLDPEWEEKLTPAGPLCPLNLKLKFNENIME
For B1, the binding result was “no binding”.
